Source: PubChem BioAssay AID1508597 (Cure First, 2020)
The whole screen tested about 2,100 reagents; below is a part drawn at random. 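Calls flag viability under 80% in either arm, not effects specific to rucaparib; the reference for percent is not stated.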 Not given: the 100% reference.

- Screen: 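Knock-downs altering ovarian cancer cell survival with or without PARP inhibitor rucaparib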 (primary screen)
- System: human ovarian carcinoma lines grown from tumours: OCI-P5x (papillary serous) and OCI-C5x (clear cell)
- Reagent: siRNA pool against human genes, 1.25 pmol siRNA per well
- Duration: 72 h or 96 h, depending on the cell culture
- Treatment: rucaparib 20 µM (about IC30) or vehicle, present until read-out
- Measurement: 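ATP luminescence measured at 72 or 96 h according to the culture, then normalised and expressed as percent viability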
- Direction: viability, normalised: higher = more viable cells remaining
- Rule for the call: 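a well counts as a hit if its normalised viability is under 80 percent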
- Meaning of the calls: active = viability under 80%; inactive = viability 80% or more

no.	Target gene	rucaparib or vehicle	cell line	technical replicate	viability, normalised (%)	activity call
1	NEK6	Rucaparib	OCI-C5x (clear cell)	1	66.4	active
2	NEK6	Rucaparib	OCI-C5x (clear cell)	2	59.2	active
3	NEK6	Rucaparib	OCI-C5x (clear cell)	3	64.6	active
4	NEK6	Rucaparib	OCI-P5x (serous)	1	85.4	inactive
5	NEK6	Rucaparib	OCI-P5x (serous)	2	95.3	inactive
6	NEK6	Rucaparib	OCI-P5x (serous)	3	75.9	active
7	NEK6	Vehicle	OCI-C5x (clear cell)	1	78.2	active
8	NEK6	Vehicle	OCI-C5x (clear cell)	2	72.5	active
9	NEK6	Vehicle	OCI-C5x (clear cell)	3	42	active
10	NEK6	Vehicle	OCI-P5x (serous)	1	85.4	inactive
11	NEK6	Vehicle	OCI-P5x (serous)	2	74.3	active
12	NEK6	Vehicle	OCI-P5x (serous)	3	71.6	active
13	SMARCB1	Rucaparib	OCI-C5x (clear cell)	1	47.4	active
14	SMARCB1	Rucaparib	OCI-C5x (clear cell)	2	48.4	active
15	SMARCB1	Rucaparib	OCI-C5x (clear cell)	3	56.8	active
16	SMARCB1	Rucaparib	OCI-P5x (serous)	1	62.5	active
17	SMARCB1	Rucaparib	OCI-P5x (serous)	2	50.6	active
18	SMARCB1	Rucaparib	OCI-P5x (serous)	3	55.7	active
19	SMARCB1	Vehicle	OCI-C5x (clear cell)	1	49.5	active
20	SMARCB1	Vehicle	OCI-C5x (clear cell)	2	42.5	active
21	SMARCB1	Vehicle	OCI-C5x (clear cell)	3	56.7	active
22	SMARCB1	Vehicle	OCI-P5x (serous)	1	66.3	active
23	SMARCB1	Vehicle	OCI-P5x (serous)	2	71.9	active
24	SMARCB1	Vehicle	OCI-P5x (serous)	3	79	active
25	PRKRA	Rucaparib	OCI-C5x (clear cell)	1	55.7	active
26	PRKRA	Rucaparib	OCI-C5x (clear cell)	2	58.3	active
27	PRKRA	Rucaparib	OCI-C5x (clear cell)	3	39.1	active
28	PRKRA	Rucaparib	OCI-P5x (serous)	1	40.2	active
29	PRKRA	Rucaparib	OCI-P5x (serous)	2	52	active
30	PRKRA	Rucaparib	OCI-P5x (serous)	3	53.1	active
31	PRKRA	Vehicle	OCI-C5x (clear cell)	1	35	active
32	PRKRA	Vehicle	OCI-C5x (clear cell)	2	47.6	active
33	PRKRA	Vehicle	OCI-C5x (clear cell)	3	50.2	active
34	PRKRA	Vehicle	OCI-P5x (serous)	1	58.1	active
35	PRKRA	Vehicle	OCI-P5x (serous)	2	70.8	active
36	PRKRA	Vehicle	OCI-P5x (serous)	3	93.7	inactive
37	QPCT	Rucaparib	OCI-C5x (clear cell)	1	71.7	active
38	QPCT	Rucaparib	OCI-C5x (clear cell)	2	65.5	active
39	QPCT	Rucaparib	OCI-C5x (clear cell)	3	47.8	active
40	QPCT	Rucaparib	OCI-P5x (serous)	1	79.7	active
41	QPCT	Rucaparib	OCI-P5x (serous)	2	96.9	inactive
42	QPCT	Rucaparib	OCI-P5x (serous)	3	77.6	active
43	QPCT	Vehicle	OCI-C5x (clear cell)	1	47.8	active
44	QPCT	Vehicle	OCI-C5x (clear cell)	2	49.3	active
45	QPCT	Vehicle	OCI-C5x (clear cell)	3	57.9	active
46	QPCT	Vehicle	OCI-P5x (serous)	1	68.9	active
47	QPCT	Vehicle	OCI-P5x (serous)	2	64.8	active
48	QPCT	Vehicle	OCI-P5x (serous)	3	74.7	active
49	GPX1	Rucaparib	OCI-C5x (clear cell)	1	49.1	active
50	GPX1	Rucaparib	OCI-C5x (clear cell)	2	46.7	active
51	GPX1	Rucaparib	OCI-C5x (clear cell)	3	46.6	active
52	GPX1	Rucaparib	OCI-P5x (serous)	1	50.9	active
53	GPX1	Rucaparib	OCI-P5x (serous)	2	81.2	inactive
54	GPX1	Rucaparib	OCI-P5x (serous)	3	58.8	active
55	GPX1	Vehicle	OCI-C5x (clear cell)	1	63.4	active
56	GPX1	Vehicle	OCI-C5x (clear cell)	2	60	active
57	GPX1	Vehicle	OCI-C5x (clear cell)	3	62	active
58	GPX1	Vehicle	OCI-P5x (serous)	1	53.5	active
59	GPX1	Vehicle	OCI-P5x (serous)	2	63	active
60	GPX1	Vehicle	OCI-P5x (serous)	3	53.5	active

A run of entries from the list above, as a working copy:
no.	Target gene	rucaparib or vehicle	cell line	technical replicate	viability, normalised (%)	activity call
19	SMARCB1	Vehicle	OCI-C5x (clear cell)	1	49.5	active
20	SMARCB1	Vehicle	OCI-C5x (clear cell)	2	42.5	active
21	SMARCB1	Vehicle	OCI-C5x (clear cell)	3	56.7	active
22	SMARCB1	Vehicle	OCI-P5x (serous)	1	66.3	active
23	SMARCB1	Vehicle	OCI-P5x (serous)	2	71.9	active
24	SMARCB1	Vehicle	OCI-P5x (serous)	3	79	active
25	PRKRA	Rucaparib	OCI-C5x (clear cell)	1	55.7	active
